Assay results reported in publication PMC10496494.
Results are given in words; binding and its absence hold for the method and conditions named. In cells and extracts the contact can be indirect. Some results given as binding are weak or reduced against the parent protein; the word gives no strength.

The chains behind the UniProt entries cited, without tags or fusion partners.
UniProt P06748: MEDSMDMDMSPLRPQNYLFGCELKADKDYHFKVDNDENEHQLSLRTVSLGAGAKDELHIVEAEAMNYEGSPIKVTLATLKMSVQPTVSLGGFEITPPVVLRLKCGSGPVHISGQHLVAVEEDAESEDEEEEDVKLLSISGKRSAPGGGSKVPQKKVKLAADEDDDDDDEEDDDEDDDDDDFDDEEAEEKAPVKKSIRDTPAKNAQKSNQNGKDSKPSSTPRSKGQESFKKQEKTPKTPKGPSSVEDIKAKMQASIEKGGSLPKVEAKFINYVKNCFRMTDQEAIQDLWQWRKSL

Target: T1, DDX24, endogenous in HUVECs (human (endogenous in HUVECs)) (UniProt Q9GZR7)
T1 sequence: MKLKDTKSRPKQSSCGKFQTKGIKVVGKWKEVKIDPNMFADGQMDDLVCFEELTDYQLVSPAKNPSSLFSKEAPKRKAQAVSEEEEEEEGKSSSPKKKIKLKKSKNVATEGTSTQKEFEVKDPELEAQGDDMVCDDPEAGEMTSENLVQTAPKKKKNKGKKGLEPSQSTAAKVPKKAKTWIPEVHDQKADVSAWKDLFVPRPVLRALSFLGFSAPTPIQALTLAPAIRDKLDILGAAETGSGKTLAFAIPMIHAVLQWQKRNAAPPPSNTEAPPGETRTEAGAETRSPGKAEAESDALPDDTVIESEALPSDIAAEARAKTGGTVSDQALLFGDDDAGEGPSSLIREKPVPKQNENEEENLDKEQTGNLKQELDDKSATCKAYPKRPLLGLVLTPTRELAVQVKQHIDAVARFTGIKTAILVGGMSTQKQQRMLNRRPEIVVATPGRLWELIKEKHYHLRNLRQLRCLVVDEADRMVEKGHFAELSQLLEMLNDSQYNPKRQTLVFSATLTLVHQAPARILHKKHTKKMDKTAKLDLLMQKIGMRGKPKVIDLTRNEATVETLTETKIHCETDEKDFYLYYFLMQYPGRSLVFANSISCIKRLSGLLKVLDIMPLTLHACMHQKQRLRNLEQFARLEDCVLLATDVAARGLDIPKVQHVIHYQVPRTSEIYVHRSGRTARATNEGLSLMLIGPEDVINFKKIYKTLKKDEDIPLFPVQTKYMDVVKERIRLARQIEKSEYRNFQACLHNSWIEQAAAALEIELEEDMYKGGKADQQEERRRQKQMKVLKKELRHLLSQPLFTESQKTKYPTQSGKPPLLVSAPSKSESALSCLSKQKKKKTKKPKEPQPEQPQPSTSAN
Assay: co-IP; HUVEC lysate precipitated with anti-DDX24 antibody (Bethyl A300-698A) or control rabbit IgG, Pierce Co-Immunoprecipitation Kit; immunoblot of DDX24 and NPM1

For “NPM1, endogenous in HUVECs (from UniProt P06748 1-294)”, the binding was “binds”.
